# Experimental data taken from US20110020802, “NUCLEIC ACIDS, METHODS AND KITS FOR THE DIAGNOSIS OF DYT6 PRIMARY TORSION DYSTONIA” (Mount Sinai School of Medicine of New York University, published 2011).
# A weaker result is weaker than the reference pair of the same experiment. Where a protein sequence is shown, tags need not be part of it.
# Biological target: T1, THAP1 F81L (Homo sapiens) (UniProt Q9NVV9)
# T1 sequence (limits assumed): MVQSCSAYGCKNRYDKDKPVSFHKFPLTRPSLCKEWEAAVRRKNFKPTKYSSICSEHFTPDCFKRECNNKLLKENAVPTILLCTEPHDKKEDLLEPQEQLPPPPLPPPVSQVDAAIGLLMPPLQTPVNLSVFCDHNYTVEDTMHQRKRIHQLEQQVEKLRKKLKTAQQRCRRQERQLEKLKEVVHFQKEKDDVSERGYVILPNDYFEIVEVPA
# Experiment: EMSA
# Conditions: bands dramatically reduced in intensity versus wild type at equal protein level; 150 mM KCl, 20 mM Tris pH 7.5, poly(dI-dC), room temperature; protein translated in vitro; protein details: N-terminal V5 (pcDNA3.1/nV5); label: 5'-32P
sequence,measurement,value
AGCAAGTAAGGGCAACTACTTCAT (double strand) [THABS probe],binding result,binds more weakly
